Paper PMC3224144
These are yes or no findings as the source states them, for the method shown. Some binding calls cover weakened binding; strength is not graded here. Each block holds one molecule with its values, some of them ahead of it.

The chains behind the UniProt entries cited, without tags or fusion partners.
UniProt P03713: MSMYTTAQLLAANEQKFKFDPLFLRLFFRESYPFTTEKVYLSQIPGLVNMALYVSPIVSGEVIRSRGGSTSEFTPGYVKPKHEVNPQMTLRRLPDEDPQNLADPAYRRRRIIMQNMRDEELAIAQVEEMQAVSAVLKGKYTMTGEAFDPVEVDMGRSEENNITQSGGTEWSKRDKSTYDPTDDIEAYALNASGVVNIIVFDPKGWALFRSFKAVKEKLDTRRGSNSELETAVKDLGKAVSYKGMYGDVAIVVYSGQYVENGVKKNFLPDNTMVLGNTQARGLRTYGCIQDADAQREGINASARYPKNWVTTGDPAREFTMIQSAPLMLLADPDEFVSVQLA
UniProt P03711: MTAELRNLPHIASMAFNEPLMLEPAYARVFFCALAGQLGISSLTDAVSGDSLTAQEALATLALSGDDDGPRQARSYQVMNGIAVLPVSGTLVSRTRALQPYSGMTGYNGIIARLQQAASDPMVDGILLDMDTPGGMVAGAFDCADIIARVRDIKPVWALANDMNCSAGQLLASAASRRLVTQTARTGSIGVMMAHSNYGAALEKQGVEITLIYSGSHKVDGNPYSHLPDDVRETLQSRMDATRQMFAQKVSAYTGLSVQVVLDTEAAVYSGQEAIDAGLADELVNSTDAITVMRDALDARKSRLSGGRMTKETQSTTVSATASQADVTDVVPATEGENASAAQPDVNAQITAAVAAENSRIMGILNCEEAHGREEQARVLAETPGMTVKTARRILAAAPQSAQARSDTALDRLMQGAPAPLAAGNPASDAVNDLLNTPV

Columns and labels:
Assay in all cases: two-hybrid; array-based yeast two-hybrid screens; each protein as bait (Gal4 DNA-binding domain) and as prey (Gal4 activation domain), N- and C-terminal fusions; bait-prey vector pairs pDEST32-pDEST22, pGBKT7g-pGADT7g, pGBKT7g-pGADCg, pGBKCg-pGADCg, pGBKCg-pGADT7g; ten configurations a pair; positives retested
[1] = biological target: major capsid protein E (bacteriophage lambda) (UniProt P03713)
D (bacteriophage lambda) = D (bacteriophage lambda) (UniProt P03712)
[2] = biological target: C protease (bacteriophage lambda) (UniProt P03711)
[3] = biological target: T1, tape measure protein H (bacteriophage lambda) (UniProt P03736)
T1 sequence: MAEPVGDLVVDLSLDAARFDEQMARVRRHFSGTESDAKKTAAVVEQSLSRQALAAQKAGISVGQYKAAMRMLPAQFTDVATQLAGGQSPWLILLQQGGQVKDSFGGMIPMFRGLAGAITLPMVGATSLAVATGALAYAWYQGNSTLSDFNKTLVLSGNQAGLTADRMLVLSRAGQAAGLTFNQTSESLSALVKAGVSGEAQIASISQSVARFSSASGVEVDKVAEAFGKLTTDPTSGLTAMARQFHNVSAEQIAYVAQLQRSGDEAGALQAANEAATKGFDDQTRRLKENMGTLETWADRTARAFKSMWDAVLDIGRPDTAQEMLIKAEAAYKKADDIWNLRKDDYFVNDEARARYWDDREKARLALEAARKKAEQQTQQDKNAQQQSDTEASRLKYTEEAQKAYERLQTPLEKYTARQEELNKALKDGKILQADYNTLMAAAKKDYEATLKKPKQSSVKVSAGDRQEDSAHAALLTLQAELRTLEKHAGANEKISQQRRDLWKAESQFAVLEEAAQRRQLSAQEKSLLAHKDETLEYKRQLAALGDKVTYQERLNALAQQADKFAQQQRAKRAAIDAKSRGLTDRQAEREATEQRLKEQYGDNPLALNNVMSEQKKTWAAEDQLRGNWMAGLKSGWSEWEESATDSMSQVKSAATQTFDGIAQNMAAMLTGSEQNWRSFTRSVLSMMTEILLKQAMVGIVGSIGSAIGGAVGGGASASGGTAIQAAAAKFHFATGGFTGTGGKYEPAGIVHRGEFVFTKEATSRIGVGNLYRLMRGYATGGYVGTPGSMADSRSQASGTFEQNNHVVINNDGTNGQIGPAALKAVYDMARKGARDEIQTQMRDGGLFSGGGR

[4] = compound: CII (bacteriophage lambda) (UniProt P03042)
[5] = biological target: T2, D (bacteriophage lambda), P03712; settings: remark: other sources report otherwise
T2 chain: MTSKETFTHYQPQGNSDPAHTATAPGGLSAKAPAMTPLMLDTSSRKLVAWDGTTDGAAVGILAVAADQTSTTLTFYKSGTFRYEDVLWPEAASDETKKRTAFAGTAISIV

[6] = biological target: T3, Integrase (Int) (bacteriophage lambda) (UniProt P03700)
T3 sequence: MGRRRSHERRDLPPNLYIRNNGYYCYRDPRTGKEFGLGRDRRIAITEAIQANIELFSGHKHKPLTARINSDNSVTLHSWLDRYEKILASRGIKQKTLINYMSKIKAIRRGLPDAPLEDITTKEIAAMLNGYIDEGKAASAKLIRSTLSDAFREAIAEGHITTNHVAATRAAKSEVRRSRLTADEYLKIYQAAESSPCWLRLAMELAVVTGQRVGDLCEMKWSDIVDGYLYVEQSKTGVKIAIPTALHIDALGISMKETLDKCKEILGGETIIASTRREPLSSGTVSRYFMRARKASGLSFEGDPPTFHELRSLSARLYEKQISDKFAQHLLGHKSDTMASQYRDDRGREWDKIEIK

[7] = biological target: T4, antiterminator N (bacteriophage lambda) (UniProt P03045)
T4 sequence: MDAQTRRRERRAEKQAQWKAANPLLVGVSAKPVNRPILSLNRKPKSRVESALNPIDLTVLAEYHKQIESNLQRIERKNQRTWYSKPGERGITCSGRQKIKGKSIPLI

[8] = biological target: T5, DNA packaging protein A (bacteriophage lambda) (UniProt P03708)
T5 sequence: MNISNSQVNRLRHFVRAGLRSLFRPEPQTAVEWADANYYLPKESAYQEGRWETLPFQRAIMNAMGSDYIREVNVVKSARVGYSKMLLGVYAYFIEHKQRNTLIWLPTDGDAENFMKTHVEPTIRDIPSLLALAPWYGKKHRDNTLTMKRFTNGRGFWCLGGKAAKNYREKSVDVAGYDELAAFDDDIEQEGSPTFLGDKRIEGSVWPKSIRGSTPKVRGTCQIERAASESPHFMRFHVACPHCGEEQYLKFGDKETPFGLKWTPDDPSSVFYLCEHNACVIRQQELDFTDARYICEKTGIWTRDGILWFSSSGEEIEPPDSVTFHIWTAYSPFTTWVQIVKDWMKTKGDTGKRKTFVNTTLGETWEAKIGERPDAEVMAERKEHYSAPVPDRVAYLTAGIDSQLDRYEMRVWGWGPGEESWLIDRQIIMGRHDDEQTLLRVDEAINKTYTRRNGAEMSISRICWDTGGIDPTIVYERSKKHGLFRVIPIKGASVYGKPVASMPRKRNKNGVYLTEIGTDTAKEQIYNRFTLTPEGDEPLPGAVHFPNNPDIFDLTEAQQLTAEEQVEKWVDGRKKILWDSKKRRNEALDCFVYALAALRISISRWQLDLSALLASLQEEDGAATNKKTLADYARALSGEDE

[9] = biological target: T6, Nu1 (bacteriophage lambda) (UniProt P03707)
T6 sequence: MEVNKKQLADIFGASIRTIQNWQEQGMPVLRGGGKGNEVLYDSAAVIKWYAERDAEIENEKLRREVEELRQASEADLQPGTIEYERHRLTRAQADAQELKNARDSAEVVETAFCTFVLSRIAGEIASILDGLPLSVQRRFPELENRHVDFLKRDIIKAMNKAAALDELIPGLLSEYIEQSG

[10] = biological target: T7, NinD (bacteriophage lambda) (UniProt P03767)
T7 sequence: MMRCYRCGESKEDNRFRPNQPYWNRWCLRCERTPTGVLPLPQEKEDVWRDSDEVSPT

[11] = compound: T8, P (bacteriophage lambda) (UniProt P03689)
T8 sequence: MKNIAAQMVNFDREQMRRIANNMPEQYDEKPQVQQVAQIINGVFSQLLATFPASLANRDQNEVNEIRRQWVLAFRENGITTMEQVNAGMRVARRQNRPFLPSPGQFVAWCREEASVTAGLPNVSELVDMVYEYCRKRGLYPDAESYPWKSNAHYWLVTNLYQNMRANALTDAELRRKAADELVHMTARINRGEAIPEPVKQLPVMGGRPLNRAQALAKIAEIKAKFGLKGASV

- binding [1]: binds
- binding (D (bacteriophage lambda)): binds
Molecule: major capsid protein E (from UniProt P03713 1-341)

- binding [2]: binds
Molecule: C protease (from UniProt P03711 1-439)

- binding [3]: binds
- binding [4]: binds
B1: CII (protein, UniProt P03042 1-97)
chain: MVRANKRNEALRIESALLNKIAMLGTEKTAEAVGVDKSQISRWKRDWIPKFSMLLAVLEWGVVDDDMARLARQVAAILTNKKRPAATERSEQIQMEF

- binding [5]: binds
B2: D, P03712 1-110 (protein)
chain: MTSKETFTHYQPQGNSDPAHTATAPGGLSAKAPAMTPLMLDTSSRKLVAWDGTTDGAAVGILAVAADQTSTTLTFYKSGTFRYEDVLWPEAASDETKKRTAFAGTAISIV

- binding [6]: binds
- binding [7]: binds
- binding [3]: binds
- binding [8]: binds
- binding [9]: binds
B3: major tail protein V (protein, UniProt P03733 1-246)
chain: MPVPNPTMPVKGAGTTLWVYKGSGDPYANPLSDVDWSRLAKVKDLTPGELTAESYDDSYLDDEDADWTATGQGQKSAGDTSFTLAWMPGEQGQQALLAWFNEGDTRAYKIRFPNGTVDVFRGWVSSIGKAVTAKEVITRTVKVTNVGRPSMAEDRSTVTAATGMTVTPASTSVVKGQSTTLTVAFQPEGVTDKSFRAVSADKTKATVSVSGMTITVNGVAAGKVNIPVVSGNGEFAAVAEITVTAS

- binding [10]: binds
- binding [11]: binds
B4: antiterminator Q (protein, UniProt P03047 1-207)
chain: MRLESVAKFHSPKSPMMSDSPRATASDSLSGTDVMAAMGMAQSQAGFGMAAFCGKHELSQNDKQKAINYLMQFAHKVSGKYRGVAKLEGNTKAKVLQVLATFAYADYCRSAATPGARCRDCHGTGRAVDIAKTELWGRVVEKECGRCKGVGYSRMPASAAYRAVTMLIPNLTQPTWSRTVKPLYDALVVQCHKEESIADNILNAVTR
